# Laboratory results as given in the supplement of paper PMC8728848.
# The list shows a part of the results.
# How the values were obtained:
# Assay in all cases: glycan array binding signal (z-score within array); higher = stronger binding
# Conditions in all cases: glycan notation: IUPAC condensed, linker removed
# [1] = target: GalNAc(b1-6)GalNAc
# Procedure, shortened: (§1)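 From the Consortium for Functional Glycomics database, 3228 arrays were curated, keeping only those whose protein sequence was available. Binding is given as a within-array Z-score averaged across arrays sharing a protein sequence and across linkers. Negative Z-scores can be read as non-binding.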
# [2] = target: Glc(a1-4)Glc
# Procedure, shortened: as §1
# [3] = target: Glc(a1-4)Glc(a1-4)Glc(a1-4)Glc
# Procedure, shortened: as §1
# [4] = target: Glc(a1-6)Glc(a1-6)Glc
# Procedure, shortened: as §1
# [5] = target: Glc(a1-6)Glc(a1-6)Glc(a1-6)Glc
# Procedure, shortened: as §1
# [6] = target: Glc(b1-4)Glc
# Procedure, shortened: as §1
# [7] = target: Glc(b1-6)Glc
# Procedure, shortened: as §1
# [8] = target: GlcA(b1-3)Gal
# Procedure, shortened: as §1
# [9] = target: GlcA(b1-3)GlcNAc
# Procedure, shortened: as §1
# [10] = target: GlcA(b1-6)Gal
# Procedure, shortened: as §1
# [11] = target: GlcNAc(a1-3)Gal(b1-4)GlcNAc
# Procedure, shortened: as §1
# [12] = target: GlcNAc(a1-4)Gal(b1-3)GlcNAc
# Procedure, shortened: as §1
# [13] = target: GlcNAc(a1-4)Gal(b1-4)GalNAc
# Procedure, shortened: as §1
# [14] = target: GlcNAc(a1-4)Gal(b1-4)GlcNAc
# Procedure, shortened: as §1
# [15] = target: GlcNAc(a1-4)Gal(b1-4)GlcNAc(b1-3)Gal(b1-4)Glc
# Procedure, shortened: as §1
# [16] = target: GlcNAc(a1-4)Gal(b1-4)GlcNAc(b1-3)Gal(b1-4)GlcNAc
# Procedure, shortened: as §1
# [17] = target: GlcNAc(a1-4)Gal(b1-4)GlcNAc(b1-3)Gal(b1-4)GlcNAc(b1-3)Gal(b1-4)GlcNAc
# Procedure, shortened: as §1
# [18] = target: GlcNAc(a1-4)Gal(b1-4)GlcNAc(b1-3)Gal(b1-4)[Fuc(a1-3)]GlcNAc(b1-3)Gal(b1-4)[Fuc(a1-3)]GlcNAc
# Procedure, shortened: as §1
# [19] = target: GlcNAc(a1-6)Gal(b1-4)GlcNAc
# Procedure, shortened: as §1
# [20] = target: GlcNAc(b1-2)Gal(b1-3)GalNAc
# Procedure, shortened: as §1
# [21] = target: GlcNAc(b1-2)Man(a1-3)[GlcNAc(b1-2)Man(a1-6)]Man(b1-4)GlcNAc(b1-4)GlcNAc
# Procedure, shortened: as §1
# [22] = target: GlcNAc(b1-2)Man(a1-3)[GlcNAc(b1-2)Man(a1-6)]Man(b1-4)GlcNAc(b1-4)[Fuc(a1-6)]GlcNAc
# Procedure, shortened: as §1
# [23] = target: GlcNAc(b1-2)Man(a1-3)[GlcNAc(b1-4)][GlcNAc(b1-2)Man(a1-6)]Man(b1-4)GlcNAc(b1-4)GlcNAc
# Procedure, shortened: as §1
# [24] = target: GlcNAc(b1-2)[GlcNAc(b1-4)]Man(a1-3)[GlcNAc(b1-2)Man(a1-6)]Man(b1-4)GlcNAc(b1-4)GlcNAc
# Procedure, shortened: as §1
# [25] = target: GlcNAc(b1-2)[GlcNAc(b1-4)]Man(a1-3)[GlcNAc(b1-4)][GlcNAc(b1-2)Man(a1-6)]Man(b1-4)GlcNAc(b1-4)GlcNAc
# Procedure, shortened: as §1
# [26] = target: GlcNAc(b1-2)[GlcNAc(b1-4)]Man(a1-3)[GlcNAc(b1-4)][GlcNAc(b1-2)[GlcNAc(b1-6)]Man(a1-6)]Man(b1-4)GlcNAc(b1-4)GlcNAc
# Procedure, shortened: as §1
# [27] = target: GlcNAc(b1-2)[GlcNAc(b1-6)]Man(a1-6)[GlcNAc(b1-2)Man(a1-3)]Man(b1-4)GlcNAc(b1-4)GlcNAc
# Procedure, shortened: as §1
# [28] = target: GlcNAc(b1-2)[GlcNAc(b1-6)]Man(a1-6)[GlcNAc(b1-2)Man(a1-3)][GlcNAc(b1-4)]Man(b1-4)GlcNAc(b1-4)GlcNAc
# Procedure, shortened: as §1
# [29] = target: GlcNAc(b1-3)Gal
# Procedure, shortened: as §1
# [30] = target: GlcNAc(b1-3)Gal(b1-3)GalNAc
# Procedure, shortened: as §1
# [31] = target: GlcNAc(b1-3)Gal(b1-4)Glc
# Procedure, shortened: as §1
# [32] = target: GlcNAc(b1-3)Gal(b1-4)GlcNAc
# Procedure, shortened: as §1
# [33] = target: GlcNAc(b1-3)Gal(b1-4)GlcNAc(b1-3)Gal(b1-4)GlcNAc
# Procedure, shortened: as §1
# [34] = target: GlcNAc(b1-3)GalNAc
# Procedure, shortened: as §1
# [35] = target: GlcNAc(b1-3)Man
# Procedure, shortened: as §1
# [36] = target: GlcNAc(b1-3)[GlcNAc(b1-4)][GlcNAc(b1-6)]GlcNAc
# Procedure, shortened: as §1
# [37] = target: GlcNAc(b1-3)[GlcNAc(b1-6)]Gal(b1-4)GlcNAc
# Procedure, shortened: as §1
# [38] = target: GlcNAc(b1-3)[GlcNAc(b1-6)]GalNAc
# Procedure, shortened: as §1
# [39] = target: GlcNAc(b1-4)Gal(b1-4)GlcNAc
# Procedure, shortened: as §1
# [40] = target: GlcNAc(b1-4)GlcNAc
# Procedure, shortened: as §1
# [41] = target: GlcNAc(b1-4)GlcNAc(b1-4)GlcNAc
# Procedure, shortened: as §1
# [42] = target: GlcNAc(b1-4)GlcNAc(b1-4)GlcNAc(b1-4)GlcNAc(b1-4)GlcNAc
# Procedure, shortened: as §1
# [43] = target: GlcNAc(b1-4)GlcNAc(b1-4)GlcNAc(b1-4)GlcNAc(b1-4)GlcNAc(b1-4)GlcNAc
# Procedure, shortened: as §1
# [44] = target: GlcNAc(b1-4)[GlcNAc(b1-6)]GalNAc
# Procedure, shortened: as §1
# [45] = target: GlcNAc(b1-6)Gal(b1-4)GlcNAc
# Procedure, shortened: as §1
# [46] = target: GlcNAc(b1-6)GalNAc
# Procedure, shortened: as §1
# [47] = target: GlcNAc3Prop(b1-4)GlcNAc
# Procedure, shortened: as §1
# [48] = target: GlcNAc6S(b1-3)Gal(b1-4)GlcNAc
# Procedure, shortened: as §1
# [49] = target: Kdn(a2-3)Gal(b1-3)GalNAc
# Procedure, shortened: as §1
# [50] = target: Kdn(a2-3)Gal(b1-3)GlcNAc
# Procedure, shortened: as §1
# [51] = target: Kdn(a2-3)Gal(b1-4)Glc
# Procedure, shortened: as §1
# [52] = target: Kdn(a2-3)Gal(b1-4)GlcNAc
# Procedure, shortened: as §1
# [53] = target: Kdn(a2-3)Gal(b1-4)[Fuc(a1-3)]GlcNAc
# Procedure, shortened: as §1
# [54] = target: Kdn(a2-6)Gal(b1-4)GlcNAc
# Procedure, shortened: as §1
# [55] = target: Man(a1-2)Man(a1-2)Man(a1-3)Man
# Procedure, shortened: as §1
# [56] = target: Man(a1-2)Man(a1-2)Man(a1-6)[Man(a1-3)]Man
# Procedure, shortened: as §1
# [57] = target: Man(a1-2)Man(a1-3)Man
# Procedure, shortened: as §1
# [58] = target: Man(a1-2)Man(a1-3)[Man(a1-2)Man(a1-6)]Man
# Procedure, shortened: as §1
# [59] = target: Man(a1-2)Man(a1-3)[Man(a1-2)Man(a1-6)]Man(a1-6)[Man(a1-2)Man(a1-2)Man(a1-3)]Man
# Procedure, shortened: as §1
# [60] = target: Man(a1-2)Man(a1-3)[Man(a1-2)Man(a1-6)]Man(a1-6)[Man(a1-2)Man(a1-2)Man(a1-3)]Man(b1-4)GlcNAc(b1-4)GlcNAc
# Procedure, shortened: as §1
binder,measurement,setting,value
"NanH (Corynebacterium diphtheriae), C6JSW6 (protein) MYSSNRTYSRAILGLSAVLTLSFTSLVAPVNAEEPETVVPATAELEGEVAATLPSAETGLLDAAPPKPVARGAAGDLQLPAVNEKEVFEEGRVIRAPEPDQSRCYRIPALVTAKNGDLLLAFDNRYGGGDGAKTWCRDAPYENMKRINRQNMQTDIQLYRSVDNGQSFEDFGYIAQGTADVRELSYTDPALVTDRTTGKIFAFFVRAYDYRVGQSSAGFNEGDVEAEIQKRDVQDTVVVESLDGGQTWGNMRLLSALTAKVSSISTGDTIFDGRGRFVTSGAGIQLQYGEHAGRLIVPISVDIDPKDSAKFINLAIYSDDHGQTWQAGIGTAGGAGFSGDVSKIVELSDGRLMMSSKDNDKPRWVSYSEDQGENWSTPKRKIIAPPQHPEKHNTGINVGLIRAYPNAPENSAAARVLLYSAPIDQRYSHKHTEDGRNNGWVMGSCDDGKTWSFGRQIEKNRFQYSSMTVMSDGNIGMVYESGDFSTGMNLKFAKFNMAWLGADCHSNEALGLTGDIDKEIVEAQEKAAEATKEAQEAAEKVQKLTEELAAARKENDELKNQVKGFKEAVGDLANEAEDLADKVFKLETAVTEAKEKATVAEKAASDAVTQLQKAESIAEEQKAKAESAAAEAQALREKLERLEGSILTVKENPEAEEIADLSSTAKDAADAARRAATDANGALSGQKQDEEKPAMGLMGILKVLAGIIPLVAIIATIFQTFRLPFNIPGMR",glycan array binding signal (z-score),[1],0.018
same,glycan array binding signal (z-score),[2],-0.111
same,glycan array binding signal (z-score),[3],1.08
same,glycan array binding signal (z-score),[4],-1.2
same,glycan array binding signal (z-score),[5],0.286
same,glycan array binding signal (z-score),[6],-0.108
same,glycan array binding signal (z-score),[7],0.666
same,glycan array binding signal (z-score),[8],2.74
same,glycan array binding signal (z-score),[9],-0.065
same,glycan array binding signal (z-score),[10],0.869
same,glycan array binding signal (z-score),[11],1.88
same,glycan array binding signal (z-score),[12],-0.516
same,glycan array binding signal (z-score),[13],0.038
same,glycan array binding signal (z-score),[14],-0.292
same,glycan array binding signal (z-score),[15],-1.54
same,glycan array binding signal (z-score),[16],3.02
same,glycan array binding signal (z-score),[17],-1.05
same,glycan array binding signal (z-score),[18],3.97
same,glycan array binding signal (z-score),[19],0.173
same,glycan array binding signal (z-score),[20],-0.307
same,glycan array binding signal (z-score),[21],-0.396
same,glycan array binding signal (z-score),[22],0.133
same,glycan array binding signal (z-score),[23],-1.53
same,glycan array binding signal (z-score),[24],-1.03
same,glycan array binding signal (z-score),[25],-0.214
same,glycan array binding signal (z-score),[26],-0.562
same,glycan array binding signal (z-score),[27],0.537
same,glycan array binding signal (z-score),[28],0.129
same,glycan array binding signal (z-score),[29],0.612
same,glycan array binding signal (z-score),[30],0.254
same,glycan array binding signal (z-score),[31],0.541
same,glycan array binding signal (z-score),[32],-0.02
same,glycan array binding signal (z-score),[33],2.52
same,glycan array binding signal (z-score),[34],-0.169
same,glycan array binding signal (z-score),[35],-0.51
same,glycan array binding signal (z-score),[36],-0.787
same,glycan array binding signal (z-score),[37],1
same,glycan array binding signal (z-score),[38],-0.047
same,glycan array binding signal (z-score),[39],-0.683
same,glycan array binding signal (z-score),[40],0.142
same,glycan array binding signal (z-score),[41],0.865
same,glycan array binding signal (z-score),[42],2.69
same,glycan array binding signal (z-score),[43],-0.273
same,glycan array binding signal (z-score),[44],-1.13
same,glycan array binding signal (z-score),[45],-0.056
same,glycan array binding signal (z-score),[46],-0.585
same,glycan array binding signal (z-score),[47],-0.028
same,glycan array binding signal (z-score),[48],0.131
same,glycan array binding signal (z-score),[49],0.343
same,glycan array binding signal (z-score),[50],0.225
same,glycan array binding signal (z-score),[51],-0.334
same,glycan array binding signal (z-score),[52],0.229
same,glycan array binding signal (z-score),[53],-0.213
same,glycan array binding signal (z-score),[54],-0.408
same,glycan array binding signal (z-score),[55],-0.136
same,glycan array binding signal (z-score),[56],2.2
same,glycan array binding signal (z-score),[57],0.086
same,glycan array binding signal (z-score),[58],-1.39
same,glycan array binding signal (z-score),[59],3.74
same,glycan array binding signal (z-score),[60],0.434

# Some of the entries so far, bar-delimited:
binder | measurement | setting | value
NanH (Corynebacterium diphtheriae), C6JSW6 (protein) MYSSNRTYSRAILGLSAVLTLSFTSLVAPVNAEEPETVVPATAELEGEVAATLPSAETGLLDAAPPKPVARGAAGDLQLPAVNEKEVFEEGRVIRAPEPDQSRCYRIPALVTAKNGDLLLAFDNRYGGGDGAKTWCRDAPYENMKRINRQNMQTDIQLYRSVDNGQSFEDFGYIAQGTADVRELSYTDPALVTDRTTGKIFAFFVRAYDYRVGQSSAGFNEGDVEAEIQKRDVQDTVVVESLDGGQTWGNMRLLSALTAKVSSISTGDTIFDGRGRFVTSGAGIQLQYGEHAGRLIVPISVDIDPKDSAKFINLAIYSDDHGQTWQAGIGTAGGAGFSGDVSKIVELSDGRLMMSSKDNDKPRWVSYSEDQGENWSTPKRKIIAPPQHPEKHNTGINVGLIRAYPNAPENSAAARVLLYSAPIDQRYSHKHTEDGRNNGWVMGSCDDGKTWSFGRQIEKNRFQYSSMTVMSDGNIGMVYESGDFSTGMNLKFAKFNMAWLGADCHSNEALGLTGDIDKEIVEAQEKAAEATKEAQEAAEKVQKLTEELAAARKENDELKNQVKGFKEAVGDLANEAEDLADKVFKLETAVTEAKEKATVAEKAASDAVTQLQKAESIAEEQKAKAESAAAEAQALREKLERLEGSILTVKENPEAEEIADLSSTAKDAADAARRAATDANGALSGQKQDEEKPAMGLMGILKVLAGIIPLVAIIATIFQTFRLPFNIPGMR | glycan array binding signal (z-score) | [22] | 0.133
same | glycan array binding signal (z-score) | [23] | -1.53
same | glycan array binding signal (z-score) | [24] | -1.03
same | glycan array binding signal (z-score) | [25] | -0.214
same | glycan array binding signal (z-score) | [26] | -0.562
